This is one part of the list.

A short description of this assay: inhibitors of IL-1B driven NFkB p65 nuclear import, primary screen, imaging, HUVEC, IL-1B stimulus, high-content imaging (AID 796). The conditions noted are these: HUVEC IL-1B NFkB p65 nuclear translocation imaging; cells passing quality filter; at 2 µM; stronger effect = lower value.
On to `COc1ccc(NC2CCN(CCc3ccccc3)CC2)c(OC)c1`, for which the cell count was found to be 135.
Under `O=C(NCC1(N2CCOCC2)CCCCC1)c1cc2ccccc2o1` stands 188.
The result for `O=C(OC1CN2CCC1CC2)C1c2ccccc2Oc2ccccc21` (stereo not given) reads 108; that for `CN1CCC(Nc2cccc(F)c2)CC1`, 95.
Turning to `N#CC1(Nc2ccccc2)CCN(CCc2ccccc2)CC1`, the cell count turned out to be 141.
For the compound `O=C(NCC1(N2CCOCC2)CCCCC1)c1cc(=O)[nH]c2ccccc12`, the cell count came to 194.
`c1ccc(CN2CCC(Nc3ccccc3)CC2)cc1` gave a cell count of 86.
`N/C(=N\O)c1c(N)no[n+]1[O-]` came in with a cell count of 194.
In turn, `CCOc1ncccc1C(=O)NCC1(N2CCOCC2)CCCCC1` had a cell count of 80.
On to `CCC(CO)(C(=O)OC1CN2CCC1CC2)c1ccccc1` (stereo not given), for which the cell count was found to be 68.

These data come from PubChem BioAssay AID796 (Columbia University Molecular Screening Center, 2007).
